Percent effect of library compounds

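Whole-cell growth test on Mycobacterium tuberculosis, read after 3 days in glucose-containing 7H9 medium; the read-out is not stated. Concentration: 500 µM. Higher reads as more growth inhibition (inferred: compounds with an IC50 in retests scored well above the rest). Of about 18,000 compounds tested this way, about 1,400 (7.9%) reached 50% or more in at least one test.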

The filed quantity is “Percent Effect” (%).
The controls that fix the scale are not given in the record; negative values are as filed.
The compounds are a random part of those screened.

| structure | Percent Effect |
|---|---|
| `CN1CCCN(Cc2cc(F)cc(F)c2)CC1=O` | 62.11 |
| `Cn1ncc(N2CCC(CNC(=O)CO)C2)cc1=O` (centres undefined) | -3.357 |
| `Cn1cc(C(N)=O)c(NCc2ccc(F)c(C#N)c2)n1` | 13.78 |
| `COC(=O)c1ccc(S(=O)(=O)N2CCOCC2)cc1` | -12.08 |
| `O=S(=O)(CCN1CCn2ccnc2C1)c1ccccc1` | 10.79 |
| `CCNC(=O)N[C@@H]1CNC[C@H]1OC` | 2.377 |
| `CC(NCc1cccc2c1OCCO2)c1ccncc1` (centres undefined) | 56.23 |
| `COC(=O)Cn1ccc(=O)c2cc(Cl)ccc21` | -12.75 |
| `Fc1ccc(CNCCn2cccn2)cc1` | 14.11 |
| `CCC(NC(=O)C1CC1)(C(N)=O)C(C)C` (centres undefined) | -0.1197 |
| `OCC(O)CSCc1ccc(F)cc1` (centres undefined) | 25.72 |
| `CCC(C)N(C)CCC(=O)Nc1ccc(C(N)=O)cc1` (centres undefined) | 10.46 |
| `CN(CC(N)=O)C(=O)CCc1nc2ccccc2s1` | -2.706 |
| `COCC(C)(NC(=O)CCc1ccccc1Cl)C(N)=O` (centres undefined) | 20.41 |
| `CC(=O)N1CCC(C(=O)NCCc2nccn2C)CC1` | 4.6 |
| `CCN1CCCC1CNC(=O)c1csc(NC(C)=O)n1` (centres undefined) | 14.07 |
| `CCOCC(=O)Nc1ccc(S(C)(=O)=O)cc1C` | -5.341 |
| `CN(C)C(=O)CN1CCC(CN)CC1` | -1.532 |
| `COc1cc(C)c(C(C)N)cc1OC` (centres undefined) | 19.95 |
| `CNC(=O)CN1CCNCC1` | -1.502 |
| `CN1CCOCC1C(=O)NCCCNc1ccccc1` (centres undefined) | 23.35 |
| `CNS(=O)(=O)N1CCc2ccccc2C1` | 21.92 |
| `CS(=O)(=O)NC1CCN(C(=O)C2CCCC2)C1` (centres undefined) | 5.712 |
| `Cc1noc(C)c1CCC(=O)N(C)Cc1ccncc1` | 14.31 |
| `COCCN1CCCC(Nc2ccc(Cl)cn2)C1` (centres undefined) | 70.67 |
| `COCc1nc(C)c(CNC(=O)Cc2ccccn2)s1` | 1.476 |
| `CCS(=O)(=O)CCCN` | 3.402 |
| `O=C(Nc1ccccc1)C1CCCN1` (centres undefined) | 1.896 |
| `c1nnc(C2CCNCC2)o1` | 7.588 |
| `CCN1CCC(CCN)CC1` | 6.845 |
| `CCn1ccnc1C(C)N` (centres undefined) | 6.813 |
| `CN(Cc1cc(C#N)cs1)Cc1nccn1C` | 26.33 |
| `CC(C)N(C)S(=O)(=O)NCC(c1ccsc1)N(C)C` (centres undefined) | -2.931 |
| `O=C(CN1CCN(CCO)CC1)NCC(F)(F)F` | -4.26 |
| `Cc1[nH]cnc1CN1CCN(C(=O)c2ccc[nH]2)CC1` | 10.83 |
| `COC(=O)CN(C(=O)c1ccc(Cl)cn1)C1CCCC1` | 18.27 |
| `CCS(=O)(=O)NC1CCN(C(=O)c2cccc(F)c2)C1` (centres undefined) | 16.05 |
| `Cc1cnc(C(=O)N2CCC(C)CC2)cn1` | 43.49 |
| `CNC(=O)N1CCN(c2cccc(OC)c2)CC1` | 27.42 |
| `CC(CN)Cn1cccn1` (centres undefined) | 5.763 |
| `CC(C)[C@@H](CCN)NC(=O)OC(C)(C)C` | 5.318 |
| `COc1ccc(C(=O)N(C)CCn2cccn2)cc1` | 76.82 |
| `CCC(NC(=O)c1nc(C)c[nH]1)c1cccc(C)n1` (centres undefined) | 12.94 |
| `CCN1CCCN(C(=O)c2ccc(C)c(F)c2)CC1` | 5.287 |
| `CC(C)NC(=O)N(C)Cc1cccc(C(N)=O)c1` | 11.11 |
| `NCC1(CO)CC(c2ccccc2)C1` (centres undefined) | 27.04 |
| `COCCN(C(=O)C1CCCO1)c1ccc(C#N)cc1` (centres undefined) | -3.582 |
| `O=C(c1ccncc1)N1CCC2(CCCCO2)CC1` | 23.96 |
| `NC(=O)c1cccnc1NCC1CNCCOC1` (centres undefined) | 4.971 |
| `O=C(CN1CCCC1)NCC(=O)Nc1ccc(F)cc1` | 3.116 |
| `CN(CC(=O)NCc1ccccn1)S(C)(=O)=O` | 10.97 |
| `CC(C)n1cncc1CN1CCN(C(=O)N(C)C)CC1` | -0.5981 |
| `Cn1c(CCO)nc2ccccc21` | 13.59 |

Some entries from above, unchanged:

structure	Percent Effect
CCN1CCCN(C(=O)c2ccc(C)c(F)c2)CC1	5.287
CC(C)NC(=O)N(C)Cc1cccc(C(N)=O)c1	11.11
Cn1c(CCO)nc2ccccc21	13.59
CCN1CCCC1CNC(=O)c1csc(NC(C)=O)n1 (centres undefined)	14.07
O=C(c1ccncc1)N1CCC2(CCCCO2)CC1	23.96
NCC1(CO)CC(c2ccccc2)C1 (centres undefined)	27.04

The values are deposited in ChEMBL (CHEMBL3988442, “University of Dundee, Small-Polar-MMV Screening Library” (2021)).